Data set [1] has as its target CREB (CRE-BP) in PC12 nuclear extract (UniProt P15337). Nature of the data set: EMSA. The conditions noted are these: crude nuclear extract, protein in an extract. Background: In EMSA bound probe runs differently from free probe, usually more slowly.
The subject of a further data set is JUN. Nature of the data set: EMSA. The conditions noted are these: 100 mM KCl, purified recombinant protein, label: 32P.
In data set [2] the test system is AP-1 proteins (JUN/FOS) in PC12 nuclear extract. As to the kind of experiment: binding assay. As to conditions: K2PtCl4 crosslinking, protein in an extract, label: 32P, folded or branched DNA.
Where [3] appears, read: label: 5'-32P, folded or branched DNA.

Protein sequences, listed by entry. Tags and fused reporters are not part of them. Lines headed by an entry give the natural chain unless they say otherwise; changes in a name come on top.
UniProt P15337: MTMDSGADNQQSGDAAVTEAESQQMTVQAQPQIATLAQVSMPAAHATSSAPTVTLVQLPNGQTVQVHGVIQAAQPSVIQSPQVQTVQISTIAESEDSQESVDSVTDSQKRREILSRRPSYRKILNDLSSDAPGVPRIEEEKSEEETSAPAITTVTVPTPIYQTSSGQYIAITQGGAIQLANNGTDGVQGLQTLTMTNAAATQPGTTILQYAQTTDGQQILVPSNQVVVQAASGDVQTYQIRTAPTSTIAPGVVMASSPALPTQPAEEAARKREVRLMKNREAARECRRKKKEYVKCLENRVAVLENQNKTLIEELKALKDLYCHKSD

For some assays here: Where cells or extracts were used, other partners may take part. For some assays here: Construct, isoform or probe ends are uncertain for at least one entry.

Consider “AAATTGACGTCATGGTAA (double strand) [CRE 18-mer duplex]”, for which the binding result in data set [1] (label: 5'-32P) was “binds”.
On to “AAATTGACGTCATGGTAACTCTCTTACCATGACGTCAATTT [CRE 41-mer hairpin]”, for which the binding result in data set [1] (setting [3]) was “binds”.
Consider “ACTCTCTGTGTCTGACTCATGCTCTCTCAGCATGAGTCAGACAC [ligTRE dumbbell]”, for which the binding result in the data set with JUN (12.5 mM MgCl2, 50 mM Tris pH 7.9, crosslinks at ~15% of ligTRE(s)6 at 2 mM K2PtCl4, folded or branched …) is listed as “binds”.
On to “ACTCTCTGTGTCTGACTCATGCTCTCTCAGCATGAGTCAGACAC [ligTRE(s)6 dumbbell]”, for which the binding result was “binds” in the data set with JUN (PS at 6 linkages within the recognition sequence, PS does not diminish binding, 12.5 mM MgCl2, pH 7.9, folded or branched DNA, variant of ligTRE dumbbell) and “binds” in data set [2] (PS at 6 linkages within the recognition sequence, major band co-migrates with JUN adduct, variant of ligTRE dumbbell).
In the case of “GTAACTCTCTTACCATGACGTCAATTTCTCTCAAATTGACGTCATG [CRE 46-mer nicked dumbbell]”, the binding result in data set [1] (setting [3]) is recorded as “binds”.
As to “GTAACTCTCTTACCATGACGTCAATTTCTCTCAAATTGACGTCATG [ligCRE dumbbell]”, the binding result in data set [1] (more efficient than other oligomers, label: 32P, folded or branched DNA) is listed as “binds”.
Consider “GTAACTCTCTTACCATGACGTCAATTTCTCTCAAATTGACGTCATG [ligCRE(s)6 dumbbell]”, for which the binding result in data set [2] (PS at 6 linkages within the octamer (T(s)GAC(s)GTC(s)A on both strands), major band co-migrates with ligTRE(s)6-JUN product, variant of ligCRE dumbbell) was “binds”.

The values are drawn from patent publication US5683985.
